# According to PubChem BioAssay (Tox21):
# Chains of the proteins cited; added tags and fusions are not shown.
# UniProt P11712, whole entry, looked up: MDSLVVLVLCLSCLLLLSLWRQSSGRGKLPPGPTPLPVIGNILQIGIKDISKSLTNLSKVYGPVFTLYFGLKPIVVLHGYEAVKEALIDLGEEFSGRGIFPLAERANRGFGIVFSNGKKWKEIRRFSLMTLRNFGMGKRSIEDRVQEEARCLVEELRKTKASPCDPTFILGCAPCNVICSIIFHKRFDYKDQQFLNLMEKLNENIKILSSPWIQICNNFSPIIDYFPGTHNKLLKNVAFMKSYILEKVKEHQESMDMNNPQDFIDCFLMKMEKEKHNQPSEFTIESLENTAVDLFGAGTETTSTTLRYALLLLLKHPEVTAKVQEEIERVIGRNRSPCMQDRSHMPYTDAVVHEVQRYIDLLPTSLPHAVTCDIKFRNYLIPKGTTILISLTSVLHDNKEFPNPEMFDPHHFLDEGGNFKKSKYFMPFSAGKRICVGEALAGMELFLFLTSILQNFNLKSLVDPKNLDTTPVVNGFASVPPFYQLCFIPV
# UniProt P05177, whole entry, looked up: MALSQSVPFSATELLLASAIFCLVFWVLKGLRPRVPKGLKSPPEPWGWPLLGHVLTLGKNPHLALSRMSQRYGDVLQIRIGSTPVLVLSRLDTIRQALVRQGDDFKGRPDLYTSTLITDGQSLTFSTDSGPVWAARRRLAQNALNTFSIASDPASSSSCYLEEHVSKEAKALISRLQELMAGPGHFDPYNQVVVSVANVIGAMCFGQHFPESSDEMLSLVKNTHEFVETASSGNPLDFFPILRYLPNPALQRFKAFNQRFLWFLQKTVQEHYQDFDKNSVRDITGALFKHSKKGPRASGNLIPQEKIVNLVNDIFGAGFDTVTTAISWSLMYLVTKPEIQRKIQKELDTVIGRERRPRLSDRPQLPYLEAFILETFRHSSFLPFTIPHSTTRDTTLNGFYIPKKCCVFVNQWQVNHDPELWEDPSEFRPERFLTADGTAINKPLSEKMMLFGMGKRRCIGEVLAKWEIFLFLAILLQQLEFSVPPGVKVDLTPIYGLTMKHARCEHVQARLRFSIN
# Where “and” joins values, the source holds several entries; their conditions need not be identical. Identical values can stand only once. This list was built around the results that the source calls inconclusive (neither active nor inactive); the mix of calls is not that of the screen. Where the call is inconclusive, the potency comes from a doubtful curve fit. Calls of active or inactive are those of the source. The call rests on the fitted dose curve; in most records, active means well fitted inhibition curve with a large enough effect in the repeat runs; inconclusive means weak or mixed curves; inactive means no such curve, though single readings can be large or run the other way.
# Target: Cytochrome P450 2C9 (Homo sapiens) (UniProt P11712)
# Test: Cytochrome P450 Family 2 Subfamily C Member 9 (CYP2C9) small molecule antagonists: luciferase reporter qHTS assay (AID 1671198)
# Conditions: P450-Glo CYP2C9 enzyme assay, luciferin luminescence; series mostly up to 115 µM; activity change, negative = inhibition: at the top concentration
# Outline: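 Enzyme-substrate mix preincubated with compound 10 min at room temperature; reaction started with NADPH regeneration solution, 1 h 37C. Luminescent luciferin product read after 20 min detection reagent.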
# Further: nearly all actives have a fitted effect of over 50% in size.
# On the % scale 0 is the no-effect control and ±100 the full control effect; potency means the concentration at half of the fitted maximal effect.
Structure (SMILES),Potency,"activity change, negative = inhibition"
CC(=O)[C@H]1CC[C@H]2[C@@H]3CC=C4C[C@@H](O)CC[C@]4(C)[C@H]3CC[C@]12C,"inconclusive: 7.09 µM [inhibitor, full curve, poor fit] and inconclusive: 6.92 µM [inhibitor, full curve, poor fit]",–
COc1c(Cl)c(Cl)c(Cl)c(Cl)c1Cl,"inactive and inconclusive: 56.4 µM [inhibitor, partial curve, poor fit]",–
NC(=O)C(=O)N/N=C/c1ccc([N+](=O)[O-])o1,"inconclusive: 27.5 µM [inhibitor, partial curve, poor fit]",–
CCCCCCCCCC=O,"inconclusive: 63.3 µM [inhibitor, partial curve, poor fit]",–
C[N+](C)(C)CC[N+]1(C)Cc2c(Cl)c(Cl)c(Cl)c(Cl)c2C1,–,inactive: -0.369% [at 53 µM]
COC(=O)CCS,–,inactive: -10.6%
CN(C)CCCNCCCN(C)C,–,inactive: -3.26%
CC(C)c1cccc(C(C)C)c1NC(=O)NS(=O)(=O)c1cc(C(C)(C)O)co1,active: 35.6 µM,–
C(=C\c1ccccc1)/c1ccccc1,"inconclusive: 39.6 µM [inhibitor, partial curve]",–
O=C(/C=C/c1ccc(O)c(O)c1)O[C@@H]1C[C@@](OC(=O)/C=C/c2ccc(O)c(O)c2)(C(=O)O)C[C@@H](O)[C@@H]1O,inconclusive: 15.5 µM [inhibitor],–
Cc1cc(O)cc2c1O[C@](C)(CCC[C@H](C)CCC[C@H](C)CCCC(C)C)CC2,"inconclusive: 3.09 µM [inhibitor, full curve, poor fit]",–
CC(CCC(=O)O)C(=O)O (stereo not drawn),–,inactive: -4.79%
CC(C)(C)C1=CC(=O)C=C(C(C)(C)C)C1=O,inconclusive: 39.9 µM [inhibitor],–
C=CC(=O)[O-].C=CC(=O)[O-].[Zn+2],active: 61.8 µM,–
CCC(C)(C)C1CCCCC1OC(C)=O (stereo not drawn),"inconclusive: 25.2 µM [inhibitor, partial curve, poor fit]",–
C/C=C(\C)C(=O)OC/C=C(\C)CCC=C(C)C,"inconclusive: 39.9 µM [inhibitor, partial curve, poor fit]",–
COc1cccc(OC)c1C(=O)N[C@@H]1C(=O)N2[C@@H]1SC(C)(C)[C@@H]2C(=O)O,–,inactive: 3.07% [at 53 µM]
Cc1cccc(OCCOc2cccc(C)c2)c1,"inconclusive: 7.53 µM [inhibitor, full curve]",–
FC(F)(F)c1cccc(Cl)c1,"inconclusive: 55.3 µM [inhibitor, partial curve, poor fit]",–
CC1(C)[C@@H](O[C@H]2O[C@H](C(=O)O)[C@@H](O)[C@H](O)[C@H]2O[C@@H]2O[C@H](C(=O)O)[C@@H](O)[C@H](O)[C@H]2O)CC[C@]2(C)[C@H]3C(=O)C=C4[C@@H]5C[C@@](C)(C(=O)O)CC[C@]5(C)CC[C@@]4(C)[C@]3(C)CC[C@@H]12,inactive,–
O=[N+]([O-])c1cc(N(CCO)CCO)ccc1NCCO,active: 35.5 µM and active: 39.9 µM,–
C=CC(=O)OCCCC,"inactive and inconclusive: 73.1 µM [inhibitor, partial curve, poor fit]",–
NC(=O)OCC(COC(N)=O)c1ccccc1,"inconclusive: 56.4 µM [inhibitor, partial curve, poor fit]",–
CCCc1ccc(OC)cc1,"inconclusive: 71.4 µM [inhibitor, partial curve, poor fit]",–
CCCCCCOC(=O)c1ccccc1O,–,inactive: -14.1%
C=CCCC=C,–,inactive: -17.8%
CCCCCCC/C=C/C=O,"inconclusive: 71 µM [inhibitor, partial curve]",–
CN1C(CSCC(F)(F)F)Nc2cc(Cl)c(S(N)(=O)=O)cc2S1(=O)=O (stereo not drawn),"inconclusive: 15.5 µM [inhibitor, partial curve]",–
OCC(CO)(CO)CO,inactive,–

# Target: Cytochrome P450 1A2 (Homo sapiens) (UniProt P05177)
# Test: Cytochrome P450 Family 1 Subfamily A Member 2 (CYP1A2) small molecule antagonists: luciferase reporter qHTS assay (AID 1671199)
# Conditions: P450-Glo CYP1A2 enzyme, luciferin luminescence, 1 h; series mostly up to 115 µM; activity change, negative = inhibition: at the top concentration
# Outline: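 CYP1A2 turnover of a luminogenic substrate was quantified after 1 h with NADPH regeneration at room temperature. Furafylline served as positive control.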
Structure (SMILES),Potency,"activity change, negative = inhibition"
CC(=O)[C@H]1CC[C@H]2[C@@H]3CC=C4C[C@@H](O)CC[C@]4(C)[C@H]3CC[C@]12C,inactive,–
COc1c(Cl)c(Cl)c(Cl)c(Cl)c1Cl,active: 28.4 µM and active: 5.03 µM,–
O=C(O)c1cccnc1C(=O)O,–,inactive: -10.6%
c1ccc2scnc2c1,"inconclusive: 78.9 µM [inhibitor, partial curve, poor fit] and inconclusive: 63.3 µM [inhibitor, partial curve]",–
NC(=O)C(=O)N/N=C/c1ccc([N+](=O)[O-])o1,–,inactive: -27.5% [at 53 µM]
CCCCCCCCCC=O,"inconclusive: 79.6 µM [inhibitor, partial curve, poor fit]",–
C[N+](C)(C)CC[N+]1(C)Cc2c(Cl)c(Cl)c(Cl)c(Cl)c2C1,–,inactive: -5.35% [at 53 µM]
CN(Cc1cnc2nc(N)nc(N)c2n1)c1ccc(C(=O)N[C@@H](CCC(=O)O)C(=O)O)cc1,inactive,–
COC(=O)CCS,"inconclusive: 62.7 µM [inhibitor, partial curve]",–
O=C1NC(=O)c2ccccc21,"inconclusive: 45.3 µM [inhibitor, partial curve, poor fit] and inconclusive: 72.8 µM [inhibitor, partial curve, poor fit] and inactive",–
CC(C)c1cccc(C(C)C)c1NC(=O)NS(=O)(=O)c1cc(C(C)(C)O)co1,"inconclusive: 35.6 µM [inhibitor, partial curve]",–
CN1CCN(N)CC1,–,inactive: 14.7% [at 53 µM]
O=C(/C=C/c1ccc(O)c(O)c1)O[C@@H]1C[C@@](OC(=O)/C=C/c2ccc(O)c(O)c2)(C(=O)O)C[C@@H](O)[C@@H]1O,active: 27.5 µM,–
Cc1cc(O)cc2c1O[C@](C)(CCC[C@H](C)CCC[C@H](C)CCCC(C)C)CC2,"inconclusive: 6.92 µM [inhibitor, full curve, poor fit]",–
CC(CCC(=O)O)C(=O)O (stereo not drawn),inconclusive: 63.4 µM [inhibitor],–
CCCCOC(=O)C(C)O (stereo not drawn),–,inactive: -17.3%
CC(C)(C)C1=CC(=O)C=C(C(C)(C)C)C1=O,"inconclusive: 56.4 µM [inhibitor, partial curve]",–

Structure (SMILES),Potency,"activity change, negative = inhibition"
C=CC(=O)[O-].C=CC(=O)[O-].[Zn+2],"inconclusive: 55.1 µM [inhibitor, partial curve]",–
CCC(C)(C)C1CCCCC1OC(C)=O (stereo not drawn),"inconclusive: 79.6 µM [inhibitor, single point]",–
Nc1nc(-c2ccccc2)cs1,active: 8.91 µM,–
C/C=C(\C)C(=O)OC/C=C(\C)CCC=C(C)C,"inconclusive: 79.6 µM [inhibitor, partial curve, poor fit]",–
OCCOCC#CCOCCO,–,inactive: -17.7%
CC(C)(C)C1CCC(CC2=C(O)c3ccccc3C(=O)C2=O)CC1 (stereo not drawn),–,inactive: -9.9% [at 53 µM]
CC1(C)[C@@H](O[C@H]2O[C@H](C(=O)O)[C@@H](O)[C@H](O)[C@H]2O[C@@H]2O[C@H](C(=O)O)[C@@H](O)[C@H](O)[C@H]2O)CC[C@]2(C)[C@H]3C(=O)C=C4[C@@H]5C[C@@](C)(C(=O)O)CC[C@]5(C)CC[C@@]4(C)[C@]3(C)CC[C@@H]12,"inconclusive: 29.7 µM [inhibitor, partial curve, poor fit]",–
O=[N+]([O-])c1cc(N(CCO)CCO)ccc1NCCO,active: 35.5 µM and active: 35.6 µM,–
C=CC(=O)OCCCC,inconclusive: 73.1 µM [inhibitor],–
CC(CO)(CO)C(=O)O,"inconclusive: 64.5 µM [inhibitor, partial curve, poor fit]",–
NC(=O)OCC(COC(N)=O)c1ccccc1,inactive,–
CCCCCCOC(=O)c1ccccc1O,"inconclusive: 35.6 µM [inhibitor, partial curve]",–
C=CCCC=C,–,inactive: -18.4%
CCCCCCC/C=C/C=O,"inconclusive: 39.9 µM [inhibitor, partial curve]",–
C=C(C)C1CC=C(C)C(OC(C)=O)C1 (stereo not drawn),"inconclusive: 70.7 µM [inhibitor, partial curve, poor fit]",–
CN1C(CSCC(F)(F)F)Nc2cc(Cl)c(S(N)(=O)=O)cc2S1(=O)=O (stereo not drawn),–,inactive: 1.68% [at 53 µM]
OCC(CO)(CO)CO,inactive,–
